Data: patent US20230270754A1, “COMBINATION THERAPY FOR INHALATION ADMINISTRATION” (Chemo Research, S.L., priority 2020, published 2023)

Tests used:
[1] = APSD by NGI, Example 2 Trimbow pMDI vs soft mist inhaler; assay type: physicochemical
Experimental: The in vitro aerodynamic assessment was carried using a next generation impactor, NGI (Copley Scientific Ltd), equipped with a mouthpiece adapter for the insertion of the inhaler, an induction port and an internal filter holder (IFH) to capture the smaller particles. The product was tested as per procedure detailed in the European pharmacopoeia chapter 2.9.18 (apparatus E) and US Pharmacopeia chapter <601> (apparatus 6) for Soft Mist Inhalers.
The NGI was cooled to 5° C. for at least 75 min. The cooling chamber was then opened and, after 30 minutes, the NGI was connected to a HCP5 vacuum pump (Copley Scientific Ltd). […]
After the required actuations, the particles deposited on the different surfaces of the impactor were extracted using a suitable diluent (methanol) and with the help of a Gentle Rocker (Copley Scientific Ltd). Active ingredients were then quantified by HPLC, with the same methods used for the Example 1.
Data analysis. The NGI results were plotted against the stage cut-off diameter as the mass recovered from the induction port to the filter. Fine particle fraction (FPF %), mass median aerodynamic diameter (MMAD), fine particle dose (FPD) were determined from the analysis of the NGI data.
(§1) Results are expressed as the mean value of two NGIs analysis.

[2] = APSD by NGI, Example 4 budesonide/formoterol 70% vs 96% ethanol, soft mist inhaler; assay type: physicochemical; settings: Formulation 2 (96% EtOH)
Experimental: An Isocratic (1.0 mL/min), HPLC-UV detection (Budesonide wavelength: 240 nm, Formoterol Fumarate wavelength: 214 nm) was employed with a Mobile Phase composed of 50/50 v/v ACN/0.1% Formic Acid with a C18 column (Hypersil BDS, 250×4.6 mm, 5 μm). External Formoterol Fumarate and Budesonide standards prepared in the method diluent (75/25 v/v MeOH/water) were used to quantify the amount of active ingredient present in the sample prepared in the same diluent using the response factor of Standard and Sample solutions. Typical System Suitability Criteria applies as per USP <621> requirements.
For the APSD evaluation Formulation 1 and 2 were filled into cartridges compatible with a soft mist inhaler (Respimat®). The in vitro aerodynamic particle size distribution of both formulations was evaluated using an impactor, the next generation impactor, NGI (Copley Scientific Ltd) equipped with a mouthpiece adapter for the insertion of the inhaler, an induction port and an internal filter holder (IFH) to capture the smaller particles. […]
After the required actuations, the particles deposited on the different surfaces of the impactor were extracted using a suitable diluent (75/25 v/v MeOH/water) and with the help of a Gentle Rocker (Copley Scientific Ltd). Active ingredients were then quantified by HPLC as described above. […]
as §1

SMILES: COc1ccc(C[C@@H](C)NC[C@H](O)c2ccc(O)c(NC=O)c2)cc1.O.O.O=C(O)/C=C/C(=O)O (racemic) [Formoterol Fumarate]
- MMAD ([1]; Soft Mist Inhaler (1 actuation), triple combination in 96% ethanol): 1.2 μm
- MMAD ([1]; Trimbow pMDI (2 actuations)): 1.2 μm
- MMAD [2]: 1.1 μm
